The assay addresses OsPAD4-nYFP (rice). As to the kind of experiment: split reporter; BiFC in rice variety Zhonghua 11 stem protoplasts co-transformed with nYFP and cYFP constructs; confocal microscopy.

No constants are given. Whether binding was seen depends on the method and setting. In cells and extracts the contact can be indirect. Binding can be weak; no strength is given. Sequences can lack the tags named with a protein.

B1: AtEDS1-cYFP (protein, UniProt Q9SU72-1 1-623)
chain: MAFEALTGINGDLITRSWSASKQAYLTERYHKEEAGAVVIFAFQPSFSEKDFFDPDNKSSFGEIKLNRVQFPCMRKIGKGDVATVNEAFLKNLEAIIDPRTSFQASVEMAVRSRKQIVFTGHSSGGATAILATVWYLEKYFIRNPNVYLEPRCVTFGAPLVGDSIFSHALGREKWSRFFVNFVSRFDIVPRIMLARKASVEETLPHVLAQLDPRKSSVQESEQRITEFYTRVMRDTSTVANQAVCELTGSAEAFLETLSSFLELSPYRPAGTFVFSTEKRLVAVNNSDAILQMLFYTSQASDEQEWSLIPFRSIRDHHSYEELVQSMGKKLFNHLDGENSIESTLNDLGVSTRGRQYVQAALEEEKKRVENQKKIIQVIEQERFLKKLAWIEDEYKPKCQAHKNGYYDSFKVSNEENDFKANVKRAELAGVFDEVLGLMKKCQLPDEFEGDIDWIKLATRYRRLVEPLDIANYHRHLKNEDTGPYMKRGRPTRYIYAQRGYEHYILKPNGMIAEDVFWNKVNGLNLGLQLEEIQETLKNSGSECGSCFWAEVEELKGKPYEEVEVRVKTLEGMLGEWITDGEVDDKEIFLEGSTFRKWWITLPKNHKSHSPLRDYMMDEITDT
As to B1, the binding result was “binds”.

(Values after article PMC6465387.)
